{"sequences": {"note": "Protein sequences, listed by entry. Tags and fused reporters are not part of them.", "UniProt Q14191, whole entry": "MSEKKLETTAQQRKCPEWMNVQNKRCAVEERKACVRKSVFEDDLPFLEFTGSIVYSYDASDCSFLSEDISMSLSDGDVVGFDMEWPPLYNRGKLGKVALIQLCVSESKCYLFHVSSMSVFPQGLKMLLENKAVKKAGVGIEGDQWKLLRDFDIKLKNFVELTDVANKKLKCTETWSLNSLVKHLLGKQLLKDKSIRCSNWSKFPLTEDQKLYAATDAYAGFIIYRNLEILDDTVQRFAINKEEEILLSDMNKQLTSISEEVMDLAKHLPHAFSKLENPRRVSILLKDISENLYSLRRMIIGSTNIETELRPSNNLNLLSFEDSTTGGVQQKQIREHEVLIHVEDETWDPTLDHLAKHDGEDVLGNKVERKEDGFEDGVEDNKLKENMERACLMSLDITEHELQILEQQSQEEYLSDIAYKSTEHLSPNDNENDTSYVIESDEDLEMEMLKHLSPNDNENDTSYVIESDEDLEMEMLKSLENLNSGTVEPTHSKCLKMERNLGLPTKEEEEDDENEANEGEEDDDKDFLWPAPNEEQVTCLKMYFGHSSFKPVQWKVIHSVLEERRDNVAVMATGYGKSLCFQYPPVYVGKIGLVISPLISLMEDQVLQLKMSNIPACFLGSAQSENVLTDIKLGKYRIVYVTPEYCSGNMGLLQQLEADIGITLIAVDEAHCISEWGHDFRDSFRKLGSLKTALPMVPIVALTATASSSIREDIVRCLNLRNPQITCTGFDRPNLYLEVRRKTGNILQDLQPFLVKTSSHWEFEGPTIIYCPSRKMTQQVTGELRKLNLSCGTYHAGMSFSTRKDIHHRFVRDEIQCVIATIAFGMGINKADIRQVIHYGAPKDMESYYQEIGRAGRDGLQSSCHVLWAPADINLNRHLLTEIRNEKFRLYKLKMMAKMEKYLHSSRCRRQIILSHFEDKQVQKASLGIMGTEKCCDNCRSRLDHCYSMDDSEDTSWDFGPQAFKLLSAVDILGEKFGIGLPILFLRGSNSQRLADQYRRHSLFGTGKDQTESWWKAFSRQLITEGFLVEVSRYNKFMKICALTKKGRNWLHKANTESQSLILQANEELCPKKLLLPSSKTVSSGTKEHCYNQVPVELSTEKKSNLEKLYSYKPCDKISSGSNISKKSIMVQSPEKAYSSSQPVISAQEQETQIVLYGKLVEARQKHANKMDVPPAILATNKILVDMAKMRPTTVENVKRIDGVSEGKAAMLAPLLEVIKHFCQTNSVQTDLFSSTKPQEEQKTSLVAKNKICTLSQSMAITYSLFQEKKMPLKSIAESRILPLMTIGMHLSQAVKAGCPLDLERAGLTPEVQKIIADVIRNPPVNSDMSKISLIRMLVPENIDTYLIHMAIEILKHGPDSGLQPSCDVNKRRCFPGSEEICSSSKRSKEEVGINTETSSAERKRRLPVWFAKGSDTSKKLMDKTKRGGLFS"}, "source": "PubChem BioAssay AID651768", "about": "(National Center for Advancing Translational Sciences (NCATS), 2012)", "note": "Hit rate of the full screen: of about 360,000 compounds, about 1,700 (0.47%) were called active. The source calls these results inconclusive, neither active nor inactive. Calls follow the shape of the dose curve; as a rule, active = well fitted inhibition curve with a large enough effect; inconclusive = small, poorly fitted or top-dose-only effect; inactive = no such curve, though single readings can be large or run the other way."}
{"target": "Bifunctional 3'-5' exonuclease/ATP-dependent helicase WRN (Homo sapiens) (UniProt Q14191)", "experiment": "qHTS for Inhibitors of WRN Helicase; also: potency is read from the fitted curve at half-maximal effect; nearly all actives have a fitted effect of over 55% in size", "conditions": "WRN helicase unwinding, fluorescent forked duplex, kinetic", "from_the_text": "Inhibition of DNA repair is proposed as a strategy for combating cancer. Synthetic lethality is an approach that exploits preexisting DNA repair deficiencies in certain tumors to develop inhibitors of DNA repair pathways that compensate for the tumor-associated DNA repair deficiency. […] We will employ an optimized high-throughput screening assay that utilizes a fluorescence intensity modulation scheme with a fluorophore and quencher positioned near one another within a duplex deoxyoligonucleotide that contains a single forked structure. […]\nThree muL of reagents (buffer in columns 3 and 4 as negative controls; WRN at 20 nM final concentration in columns 1 and 2 as positive controls; columns 5-48 as test reactions) will be dispensed into a 1536-well Greiner black plate via solenoid-valve based nanoliter dispensers. […] Plates will be incubated for 15 min at room temperature, and then 1 µL of substrate (100 nM forked duplex oligonucleotide and 2 mM ATP final concentrations) will be added to start reaction, and plate will be transferred into a ViewLux high-throughput CCD imager where reaction progress is measured in kinetic mode using standard red-fluorescence optics (excitation filter 525 nm, emission filter 598 nm)."}
{"compound": "COc1ccc(NP(C)(=O)Oc2ccccc2OC)cc1", "note": "(configuration not stated)", "Potency": "inconclusive: 63.1 µM"}
{"compound": "O=C(OCCCN1CCCC1)C(O)(c1ccccc1)C1CCCCC1", "note": "(configuration not stated)", "Potency": "inconclusive: 10 µM"}
